Measurements published in article PMC9335864.
These are yes or no findings as the source states them, for the method shown. In cells and extracts the contact can be indirect. Some binding calls cover weakened binding; strength is not graded here.

Target: p97 (endogenous) (human (endogenous in U2OS)) (UniProt P55072)
Experiment: co-IP; co-IP of p97 from U2OS cells expressing scFv-A06 (Figure S10)

B1: p47 (endogenous) (protein, UniProt Q9UNZ2 1-370)
chain: MAAERQEALREFVAVTGAEEDRARFFLESAGWDLQIALASFYEDGGDEDIVTISQATPSSVSRGTAPSDNRVTSFRDLIHDQDEDEEEEEGQRFYAGGSERSGQQIVGPPRKKSPNELVDDLFKGAKEHGAVAVERVTKSPGETSKPRPFAGGGYRLGAAPEEESAYVAGEKRQHSSQDVHVVLKLWKSGFSLDNGELRSYQDPSNAQFLESIRRGEVPAELRRLAHGGQVNLDMEDHRDEDFVKPKGAFKAFTGEGQKLGSTAPQVLSTSSPAQQAENEAKASSSILIDESEPTTNIQIRLADGGRLVQKFNHSHRISDIRLFIVDARPAMAATSFILMTTFPNKELADESQTLKEANLLNAVIVQRLT
  binding: binds
